# Drug screen on melanoma cell lines: apoptosis marker

Data from the primary screen of doi:10.1371/journal.pone.0140310, rounded.

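Human melanoma cells were exposed to two drugs together for 72 h in 1,536-well plates and read by automated microscopy after fixing and staining. Values are the share of nuclei positive for cleaved PARP as a percentage of the same share in the DMSO control: 100 is the control level, higher means more apoptosis. Concentrations were fixed for each drug; these are the higher of two levels. These are primary screening values without error estimates. Basal and induced levels differ widely between cell lines.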 An unselected part of the screen is shown. An entry leaves out what has no value listed here. A dash means that no value is listed here.

Compounds and concentrations:
PD173074: CCN(CC)CCCCNc1ncc2cc(-c3cc(OC)cc(OC)c3)c(NC(=O)NC(C)(C)C)nc2n1 at 0.5 µM
CP-690550: C[C@@H]1CCN(C(=O)CC#N)C[C@@H]1N(C)c1ncnc2[nH]ccc12 at 5 µM
fingolimod: CCCCCCCCc1ccc(CCC(N)(CO)CO)cc1 at 10 µM
lenalidomide: Nc1cccc2c1CN(C1CCC(=O)NC1=O)C2=O (stereo not shown) at 5 µM
dasatinib: Cc1nc(Nc2ncc(C(=O)Nc3c(C)cccc3Cl)s2)cc(N2CCN(CCO)CC2)n1 at 0.02 µM
VX-702: NC(=O)c1ccc(N(C(N)=O)c2c(F)cccc2F)nc1-c1ccc(F)cc1F at 2 µM
nutlin-3: COc1ccc(C2=N[C@@H](c3ccc(Cl)cc3)[C@@H](c3ccc(Cl)cc3)N2C(=O)N2CCNC(=O)C2)c(OC(C)C)c1 at 0.5 µM
ENMD-2076: Cc1cc(Nc2cc(N3CCN(C)CC3)nc(/C=C/c3ccccc3)n2)n[nH]1 at 0.2 µM
KU-55933: O=c1cc(-c2cccc3c2Sc2ccccc2S3)oc(N2CCOCC2)c1 at 5 µM

{"pair": "ENMD-2076 + VX-702", "RVH-421": 60.3, "COLO 829": 89.4, "WM1716": 60.5, "LB2518-MEL": 91.5, "IPC-298": 31.8, "A375": 162, "COLO 800": 75.7, "C32": 209}
{"pair": "CP-690550 + VX-702", "RVH-421": 47.2, "COLO 829": 147, "WM1716": 62.0, "LB2518-MEL": 86.8, "IPC-298": 244, "COLO 800": 64.7, "C32": 163}
{"pair": "PD173074 + ENMD-2076", "RVH-421": 77.5, "COLO 829": 33.5, "WM1716": 40.2, "LB2518-MEL": 143, "IPC-298": 82.0, "A375": 41.0, "COLO 800": 201, "C32": 67.1}
{"pair": "lenalidomide + PD173074", "RVH-421": 72.6, "COLO 829": 61.4, "WM1716": 71.3, "LB2518-MEL": 78.6, "IPC-298": 38.4, "A375": 29.3, "COLO 800": 261, "C32": 78.9}
{"pair": "dasatinib + VX-702", "RVH-421": 154, "COLO 829": 189, "WM1716": 39.6, "LB2518-MEL": 179, "IPC-298": 103, "A375": 101, "COLO 800": 123, "C32": 994}
{"pair": "VX-702 + nutlin-3", "RVH-421": 226, "COLO 829": 107, "WM1716": 51.6, "LB2518-MEL": 127, "IPC-298": 269, "A375": 38.6, "COLO 800": 82.7, "C32": 138}
{"pair": "KU-55933 + lenalidomide", "RVH-421": 152, "COLO 829": 98.0, "WM1716": 146, "LB2518-MEL": 181, "IPC-298": 91.4, "A375": 83.1, "COLO 800": 138, "C32": 81.9}
{"pair": "lenalidomide + nutlin-3", "RVH-421": 137, "COLO 829": 192, "WM1716": 108, "LB2518-MEL": 44.3, "IPC-298": 63.7, "A375": 188, "COLO 800": 125, "C32": 231}
{"pair": "fingolimod + ENMD-2076", "RVH-421": 509, "COLO 829": 153, "WM1716": 553, "LB2518-MEL": 6020, "IPC-298": 163, "A375": 83.3, "COLO 800": 176, "C32": 1500}
{"pair": "PD173074 + nutlin-3", "RVH-421": 188, "COLO 829": 93.5, "WM1716": 41.0, "LB2518-MEL": 165, "IPC-298": 85.5, "A375": 122, "COLO 800": 69.4, "C32": 108}
{"pair": "KU-55933 + VX-702", "RVH-421": 121, "COLO 829": 114, "WM1716": 96.7, "LB2518-MEL": 29.4, "IPC-298": 178, "A375": 71.4, "COLO 800": 114, "C32": 94.9}
{"pair": "KU-55933 + nutlin-3", "RVH-421": 291, "COLO 829": 35.5, "WM1716": 211, "LB2518-MEL": 69.5, "IPC-298": 74.5, "A375": 158, "COLO 800": 103, "C32": 114}
{"pair": "nutlin-3 + dasatinib", "RVH-421": 513, "COLO 829": 524, "WM1716": 258, "LB2518-MEL": 189, "IPC-298": 89.9, "A375": 104, "COLO 800": 39.1, "C32": 443}
{"pair": "PD173074 + fingolimod", "RVH-421": 172, "COLO 829": 107, "WM1716": 760, "LB2518-MEL": 212, "IPC-298": 169, "A375": 137, "COLO 800": 264, "C32": 2800}
{"pair": "ENMD-2076 + lenalidomide", "RVH-421": 177, "COLO 829": 90.9, "WM1716": 153, "LB2518-MEL": 131, "IPC-298": 97.7, "A375": 97.3, "COLO 800": 68.5, "C32": 225}
{"pair": "KU-55933 + CP-690550", "RVH-421": 76.2, "COLO 829": 109, "WM1716": 28.7, "LB2518-MEL": 71.6, "IPC-298": 59.5, "A375": 109, "COLO 800": 102, "C32": 97.8}
{"pair": "VX-702 + PD173074", "RVH-421": 61.1, "COLO 829": 113, "WM1716": 33.1, "LB2518-MEL": 91.3, "IPC-298": 109, "A375": 36.3, "COLO 800": 112, "C32": 71.0}
{"pair": "dasatinib + PD173074", "RVH-421": 80.6, "COLO 829": 116, "WM1716": 261, "LB2518-MEL": 114, "IPC-298": 117, "A375": 127, "COLO 800": 170, "C32": 396}
{"pair": "KU-55933 + fingolimod", "RVH-421": 880, "COLO 829": 266, "WM1716": 13300, "IPC-298": 342, "A375": 55.5, "COLO 800": 1650, "C32": 994}
{"pair": "dasatinib + fingolimod", "RVH-421": 416, "COLO 829": 305, "WM1716": 401, "LB2518-MEL": 32200, "IPC-298": 275, "A375": 61.8, "COLO 800": 190, "C32": 3690}
{"pair": "ENMD-2076 + CP-690550", "RVH-421": 278, "COLO 829": 110, "WM1716": 106, "LB2518-MEL": 123, "IPC-298": 35.2, "COLO 800": 92.3, "C32": 140}

Repeated from the top, 3 entries:

Pair,RVH-421,COLO 829,WM1716,LB2518-MEL,IPC-298,A375,COLO 800,C32
ENMD-2076 + VX-702,60.3,89.4,60.5,91.5,31.8,162,75.7,209
CP-690550 + VX-702,47.2,147,62.0,86.8,244,-,64.7,163
PD173074 + ENMD-2076,77.5,33.5,40.2,143,82.0,41.0,201,67.1